# Laboratory results taken from the supplement of paper PMC3334620.
# Whole data set: some 33,000 sequences, median “E-score (-0.5 to 0.5)” near -0.015, cut for the highest 2% near 0.3. The list shows a part of the results.
# Biological target: T1, Abf1 (UniProt P14164)
# T1 sequence: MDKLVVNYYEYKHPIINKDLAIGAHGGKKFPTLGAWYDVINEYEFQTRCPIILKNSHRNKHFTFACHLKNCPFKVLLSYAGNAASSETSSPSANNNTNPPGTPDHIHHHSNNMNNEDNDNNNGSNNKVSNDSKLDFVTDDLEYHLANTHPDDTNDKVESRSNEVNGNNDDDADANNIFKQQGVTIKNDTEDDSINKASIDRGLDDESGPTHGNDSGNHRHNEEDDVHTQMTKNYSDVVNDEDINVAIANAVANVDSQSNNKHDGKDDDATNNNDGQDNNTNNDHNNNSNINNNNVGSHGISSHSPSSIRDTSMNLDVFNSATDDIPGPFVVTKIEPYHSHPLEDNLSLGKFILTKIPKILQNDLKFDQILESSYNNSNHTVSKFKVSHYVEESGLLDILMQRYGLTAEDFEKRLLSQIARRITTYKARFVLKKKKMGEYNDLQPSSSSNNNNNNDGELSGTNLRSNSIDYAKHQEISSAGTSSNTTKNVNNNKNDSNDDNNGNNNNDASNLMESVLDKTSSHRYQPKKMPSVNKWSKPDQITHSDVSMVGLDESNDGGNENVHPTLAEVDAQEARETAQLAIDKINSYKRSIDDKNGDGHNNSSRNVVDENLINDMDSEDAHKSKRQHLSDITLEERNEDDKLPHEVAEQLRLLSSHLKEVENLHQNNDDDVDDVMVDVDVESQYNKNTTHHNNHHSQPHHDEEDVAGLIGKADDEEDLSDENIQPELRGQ
# Experiment: PBM E-score (8-mer binding enrichment) (E-score (-0.5 to 0.5)); higher = stronger / more preferred TF binding
# Conditions: protein concentration: 200 nM; construct: GST-full length
# Outline: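 Full-length yeast transcription factors or their DNA-binding domains, GST-tagged and expressed with PURExpress, were applied at about 100-200 nM to universal all-10-mer Agilent arrays. These arrays had been made double-stranded by primer extension on fresh or once-stripped slides. Detection used fluorescent anti-GST, normalisation used masliner, and E-scores for ungapped eight-base words pooled with reverse complements came from the Universal PBM Analysis Suite.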
row,Sequence,PBM E-score
1,AGGGGGGG,-0.41
2,ACTATGGA,-0.013
3,AAAGTGTC,-0.0383
4,CCCGTCGA,0.253
5,GATAAAAA,0.231
6,CGAGATTC,-0.0478
7,CGTCCCTA,0.0477
8,CTGGCTGC,-0.142
9,CATGATAC,0.236
10,CCAAGTAG,-0.122
11,CCTGGTCG,-0.0129
12,ATTTTTTC,0.14
13,ATATACTG,0.116
14,AGGCAAGC,-0.195
15,CTTTTGCC,0.0132
16,GGACAGCA,-0.0279
17,ATTTCCTG,0.146
18,GAGACCCC,-0.253
19,CGAATGAA,-0.164
20,AAGTTACG,0.256
21,GCAGAAAC,0.0525
22,AGATCGCG,0.166
23,GCTAGATA,0.053
24,GACACGCA,-0.112

row,Sequence,PBM E-score
1,ACTAAAAG,0.0434
2,CTAAGAGA,-0.00333
3,GTATGGTA,0.0367
4,TATAGTCA,0.0498
5,CCAGACTC,-0.183
6,AAGCTGAG,-0.223
7,GAGAGCAC,0.0115
8,GACAGTAC,0.196
9,CGAGAACC,-0.0363
10,CCCCTAGG,-0.245
11,GAGTGCAA,-0.128
12,AAGACGGC,0.118
13,ACCGTTCT,0.0916
14,CTTAGTTC,-0.0152
15,GAATCTAC,0.0752
16,ATGTTATG,0.109
17,CGCAATGC,-0.178
18,ACCACAGT,-0.131
19,TCAAAGGA,-0.0811
20,CGCAGTGA,0.151
21,CAGGACCC,-0.171
22,GTAGATAC,0.0486
23,CACCACTA,-0.0391
24,CCACGAAC,0.338

row,Sequence,PBM E-score
1,ACATGACG,0.161
2,CCAGGACG,-0.125
3,GCAGGTCC,-0.0766
4,ATTGTAAC,0.0577
5,ATATGTTA,-0.0727
6,TACCCTGA,-0.139
7,CTGACGAC,0.228
8,CTTGCAAG,-0.0984
9,ATAGCGTA,0.0387
10,AATGAGGA,-0.0728
11,ACAGCATC,-0.0789
12,CTGGACAG,-0.169
13,CCAATAGC,-0.0947
14,CACACCTC,-0.13
15,ATTAATTG,0.158
16,ACGTTCCC,0.0384
17,ATTTTAGG,0.164
18,AAACGATA,0.376
19,AGAATCTA,-0.00611
20,AACTTGTG,0.127
21,CGTCCAAA,0.207
22,ATGGGAAG,-0.191
23,ACTTGTCA,0.264
24,CACCGACA,0.0857

# Already shown: entries from further up.
row,Sequence,PBM E-score
15,CTTTTGCC,0.0132
16,GGACAGCA,-0.0279
17,ATTTCCTG,0.146
18,GAGACCCC,-0.253

# Next entries follow.

row,Sequence,PBM E-score
1,AGAGTGAG,0.0964
2,CGGAGGAC,-0.135
3,AACGGGTA,0.0715
4,AAAAGTAG,0.12
5,AGCAAGAC,0.0323
6,AAACACAA,-0.0197
7,GTGCCCGA,0.116
8,AAGTACTG,-0.0963
9,ACACGCCG,-0.0835
10,ACATCCCG,0.0611
11,AGACGCGA,-0.0282
12,CTTGCGTA,0.114
13,GGTCATGA,0.124
14,CGAAACTA,0.273
15,CGGTCCTC,-0.114
16,CAGGTGAC,0.22
17,ATCTAGAG,0.0253
18,AGGCCCCG,-0.122
19,ATCTATGA,-0.0019
20,CTCATAAA,0.00302
21,ATACCTGA,-0.11
22,CCTAGACA,-0.177
